From the supplement of paper PMC10689618
Where a name gives a salt, the structure may show the parent alone. This is one part of the list. Repeats are few or missing, and single values can be far off.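 Labelled rat cortical synaptosomes were engulfed by primary human fetal astrocytes. Engulfment equaled a red/green ratio, corrected for calcein live-cell signal and normalized to the plate median. Compounds were toxic when calcein dropped over 30%, and reduced phagocytosis when below 70% of the median above 5 µM.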

Key:
Human fetal astrocytes [1] = experiment: loss of total cells relative to no-compound high-control median (toxicity); higher = more toxic (fewer cells); settings: 24 h
Human fetal astrocytes [2] = experiment: synaptosome phagocytosis (pHrodo/calcein intensity ratio) relative to plate median of data wells; higher = more phagocytosis; settings: 24 h

SMILES | loss of total cells (Human fetal astrocytes [1]; 1.39 µM) [%] | loss of total cells (Human fetal astrocytes [1]; 2.78 µM) [%] | loss of total cells (Human fetal astrocytes [1]; 5.56 µM) [%] | loss of total cells (Human fetal astrocytes [1]; 11.11 µM) [%] | loss of total cells (Human fetal astrocytes [1]; 22.22 µM) [%] | synaptosome phagocytosis (Human fetal astrocytes [2]; 1.39 µM) [%] | synaptosome phagocytosis (Human fetal astrocytes [2]; 2.78 µM) [%] | synaptosome phagocytosis (Human fetal astrocytes [2]; 5.56 µM) [%] | synaptosome phagocytosis (Human fetal astrocytes [2]; 11.11 µM) [%] | synaptosome phagocytosis (Human fetal astrocytes [2]; 22.22 µM) [%]
O=c1[nH]c2cc(Cl)ccc2c(O)c1-c1cccc(Oc2ccccc2)c1 | -24.2 | 14 | 3.3 | 19 | 7.5 | 89.4 | 115 | 113 | 105 | 116
CCCCCCCCCCCCCCC[C@H](O)[C@H](N)CO (racemic) [DL-erythro-Dihydrosphingosine] | 13.8 | -20.5 | 13.2 | -16.6 | 19.2 | 110 | 78.9 | 79.2 | 115 | 99.2
NS(=O)(=O)c1cc(C(=O)O)c(NCc2ccco2)cc1Cl [Furosemide] | 5.4 | -24.8 | -11.5 | -8.5 | 4 | 124 | 90.5 | 122 | 126 | 108
O=C(O)C1CCCN(CCC=C(c2ccccc2)c2ccccc2)C1 (stereo not given) | -13.4 | -24.9 | -2.2 | -12.6 | -6.6 | 125 | 80 | 99.5 | 104 | 108
COc1ccc2c(c1)c(CC(=O)N1CCOCC1)c(C)n2C(=O)c1ccc(Cl)cc1 [Indomethacin morpholinylamide] | 0.5 | 12.2 | 15.5 | 22.9 | 12.1 | 98.7 | 104 | 118 | 138 | 102
CN(C)CCOC(=O)COc1ccc(Cl)cc1 [Centrophenoxine hydrochloride] | 22.4 | 0.9 | -1.4 | -10.3 | -10.9 | 66 | 103 | 97.5 | 114 | 105
C[N+](C)(C)CCCCCC[N+](C)(C)C [Hexamethonium bromide] | 7.9 | -6 | -6.6 | -20.2 | -3.2 | 144 | 83.8 | 133 | 116 | 117
NCCCCN [Putrescine dihydrochloride] | -5.3 | -24.3 | -1.7 | 8 | -5.8 | 121 | 110 | 111 | 113 | 114
C[C@]12CC[C@@H]3c4ccc(O)cc4CC[C@H]3[C@@H]1CCC2=O [Estrone] | 12.1 | -20.5 | 8.2 | 3.1 | -21.6 | 110 | 95.5 | 105 | 108 | 104
Cn1c(=O)c2[nH]c(-c3ccccc3)nc2n(C)c1=O [1,3-Dimethyl-8-phenylxanthine] | 0.5 | -3.2 | -8 | 18.1 | 28 | 102 | 90.3 | 123 | 94.9 | 120
OC[C@H]1NC[C@@H](O)[C@@H]1O [1,4-Dideoxy-1,4-imino-D-arabinitol] | -4.6 | -8.5 | -14 | -3.1 | -11.2 | 91 | 124 | 91 | 82.3 | 109
COc1ccc2c(c1)CCC1C2CCC2(C)C(NCCCCCCN3C(=O)C=CC3=O)CCC12 (stereo not given) | -15.2 | -24.9 | 1.1 | -12.6 | -10.7 | 107 | 126 | 103 | 96.5 | 116
CC(N)=NCCCC[C@H](N)C(=O)O [L-N6-(1-Iminoethyl)lysine hydrochloride] | -3.3 | 2.3 | 18.3 | 21.9 | 31.8 | 108 | 123 | 103 | 109 | 132
N#CC(C#N)=C(N)/C(C#N)=C/c1ccc(O)cc1 [Tyrphostin AG 112] | -10.2 | -12.9 | -4.5 | -11.9 | -18.9 | 92.9 | 102 | 101 | 110 | 83.2
O=c1[nH]c(=O)n([C@H]2C[C@H](O)[C@@H](CO)O2)cc1Br [5-Bromo-2'-deoxyuridine] | -13.6 | -14.7 | -12.4 | -25.6 | -1.1 | 104 | 124 | 108 | 102 | 110
CC[C@@H]1Cc2cc(O)ccc2C2=C1c1ccc(O)cc1C[C@H]2CC [(R,R)-cis-Diethyl tetrahydro-2,8-chrysenediol] | 13 | -15.4 | 10.7 | 14.8 | 24 | 98.9 | 124 | 121 | 101 | 68.8
O=c1cc(N2CCOCC2)oc2c(-c3ccccc3)cccc12 [LY-294,002 hydrochloride] | -17.5 | -14.9 | -6.1 | -8.6 | 20.6 | 97.9 | 112 | 109 | 64.4 | 82.9
CN1[C@@H](CC(=O)c2ccccc2)CCC[C@H]1C[C@H](O)c1ccccc1 [alpha-Lobeline hydrochloride] | -5.2 | 3.2 | -9.9 | 21 | 20.6 | 78.5 | 92 | 88.5 | 90.2 | 84.8
COc1nc(C)nc(Cl)c1NC1=NCCN1 [Moxonidine hydrochloride] | -0.5 | 14 | 8 | 16.2 | 17.8 | 118 | 128 | 128 | 131 | 167
CC(C)NCC(O)c1cc(O)cc(O)c1 (stereo not given) [Metaproterenol hemisulfate] | 9 | 2.3 | 0.5 | 8.6 | 17.8 | 114 | 92.4 | 83.5 | 126 | 136

Two records picked at random from those above, as already listed:
SMILES | loss of total cells (Human fetal astrocytes [1]; 1.39 µM) [%] | loss of total cells (Human fetal astrocytes [1]; 2.78 µM) [%] | loss of total cells (Human fetal astrocytes [1]; 5.56 µM) [%] | loss of total cells (Human fetal astrocytes [1]; 11.11 µM) [%] | loss of total cells (Human fetal astrocytes [1]; 22.22 µM) [%] | synaptosome phagocytosis (Human fetal astrocytes [2]; 1.39 µM) [%] | synaptosome phagocytosis (Human fetal astrocytes [2]; 2.78 µM) [%] | synaptosome phagocytosis (Human fetal astrocytes [2]; 5.56 µM) [%] | synaptosome phagocytosis (Human fetal astrocytes [2]; 11.11 µM) [%] | synaptosome phagocytosis (Human fetal astrocytes [2]; 22.22 µM) [%]
CN(C)CCOC(=O)COc1ccc(Cl)cc1 [Centrophenoxine hydrochloride] | 22.4 | 0.9 | -1.4 | -10.3 | -10.9 | 66 | 103 | 97.5 | 114 | 105
OC[C@H]1NC[C@@H](O)[C@@H]1O [1,4-Dideoxy-1,4-imino-D-arabinitol] | -4.6 | -8.5 | -14 | -3.1 | -11.2 | 91 | 124 | 91 | 82.3 | 109
